# Literature values in patent publication US10239842B2, “Hydrosoluble compounds derived from benzimidazole used in treating fasciolosis” (UNIVERSIDAD NACIONAL AUTONOMA DE MEXICO, priority 2014, dated 2019).
# Some results were stated once for a whole list of compounds, not compound by compound. At least one compound was matched to its structure with a doubt left.
# Test system: Fasciola hepatica
# Details: sheep; recommended dose rates; second (older) age span in weeks, span not recoverable from the grid; cited from earlier work
row,Compound,"Efficacy against Fasciola hepatica, second fasciola age span for the drug"
1,N#Cc1cc(I)c(O)c([N+](=O)[O-])c1 [Nitroxynil],91-99%
2,Oc1c(Cl)cc(Cl)c(Cl)c1Cc1c(O)c(Cl)cc(Cl)c1Cl [Hexachlorophene],80-99%
3,CCCSc1ccc2nc(NC(=O)OC)[nH]c2c1 [Albendazole],80-99%
